Experimental data from PMC3483219.
These are yes or no findings as the source states them, for the method shown. Binding seen in cells or lysates may run through a third protein. Some binding calls cover weakened binding; strength is not graded here.

Sequences of proteins named here, by UniProt entry; tags and fusion partners are left off. Residues count along the entry.
UniProt Q96T51, residues 299-708: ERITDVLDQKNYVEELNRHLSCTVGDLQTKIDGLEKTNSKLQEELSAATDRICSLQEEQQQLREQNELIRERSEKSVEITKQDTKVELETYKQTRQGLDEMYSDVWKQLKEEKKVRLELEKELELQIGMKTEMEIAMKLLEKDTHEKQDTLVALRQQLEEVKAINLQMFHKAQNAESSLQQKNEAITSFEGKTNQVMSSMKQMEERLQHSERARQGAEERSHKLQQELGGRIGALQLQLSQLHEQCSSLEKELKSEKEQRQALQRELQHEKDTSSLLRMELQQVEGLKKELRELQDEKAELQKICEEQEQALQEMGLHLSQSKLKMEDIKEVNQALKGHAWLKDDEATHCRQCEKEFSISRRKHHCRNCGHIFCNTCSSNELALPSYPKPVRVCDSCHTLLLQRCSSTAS

T1: δ-adaptin (HeLa) (human (endogenous in HeLa)) (UniProt O14617)
T1 sequence: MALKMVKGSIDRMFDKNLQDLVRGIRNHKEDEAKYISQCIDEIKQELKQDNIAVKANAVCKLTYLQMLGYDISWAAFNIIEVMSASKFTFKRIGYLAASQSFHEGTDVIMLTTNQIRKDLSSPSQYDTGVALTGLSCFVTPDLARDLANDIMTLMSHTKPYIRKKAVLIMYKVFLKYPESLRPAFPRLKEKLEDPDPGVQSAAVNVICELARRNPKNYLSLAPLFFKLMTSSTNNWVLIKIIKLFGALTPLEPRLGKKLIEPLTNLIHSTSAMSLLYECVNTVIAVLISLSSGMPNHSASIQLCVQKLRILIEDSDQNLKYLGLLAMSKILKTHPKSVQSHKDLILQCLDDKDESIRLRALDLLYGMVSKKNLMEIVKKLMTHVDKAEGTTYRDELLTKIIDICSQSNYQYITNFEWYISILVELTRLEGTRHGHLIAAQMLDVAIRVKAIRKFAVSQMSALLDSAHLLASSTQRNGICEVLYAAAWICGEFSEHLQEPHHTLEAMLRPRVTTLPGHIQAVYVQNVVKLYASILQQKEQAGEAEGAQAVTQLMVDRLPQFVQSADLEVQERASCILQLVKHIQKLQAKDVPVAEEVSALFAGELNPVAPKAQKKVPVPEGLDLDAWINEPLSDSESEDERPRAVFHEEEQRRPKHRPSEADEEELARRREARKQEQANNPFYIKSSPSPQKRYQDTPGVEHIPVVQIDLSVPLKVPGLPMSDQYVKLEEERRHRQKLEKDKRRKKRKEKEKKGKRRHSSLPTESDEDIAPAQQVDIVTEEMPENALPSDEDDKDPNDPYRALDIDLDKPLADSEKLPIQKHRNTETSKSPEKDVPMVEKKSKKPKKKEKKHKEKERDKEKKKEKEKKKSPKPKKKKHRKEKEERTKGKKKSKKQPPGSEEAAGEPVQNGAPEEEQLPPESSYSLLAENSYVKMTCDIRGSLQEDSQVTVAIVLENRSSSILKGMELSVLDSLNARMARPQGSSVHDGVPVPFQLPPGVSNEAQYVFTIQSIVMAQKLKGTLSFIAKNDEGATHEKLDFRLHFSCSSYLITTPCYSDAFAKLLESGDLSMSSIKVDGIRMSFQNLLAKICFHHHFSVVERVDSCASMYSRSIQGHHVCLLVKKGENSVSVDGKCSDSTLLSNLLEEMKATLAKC

B1: β3A-adaptin (HeLa) (protein, UniProt O00203 1-1094)
chain: MSSNSFPYNEQSGGGEATELGQEATSTISPSGAFGLFSSDLKKNEDLKQMLESNKDSAKLDAMKRIVGMIAKGKNASELFPAVVKNVASKNIEIKKLVYVYLVRYAEEQQDLALLSISTFQRALKDPNQLIRASALRVLSSIRVPIIVPIMMLAIKEASADLSPYVRKNAAHAIQKLYSLDPEQKEMLIEVIEKLLKDKSTLVAGSVVMAFEEVCPDRIDLIHKNYRKLCNLLVDVEEWGQVVIIHMLTRYARTQFVSPWKEGDELEDNGKNFYESDDDQKEKTDKKKKPYTMDPDHRLLIRNTKPLLQSRNAAVVMAVAQLYWHISPKSEAGIISKSLVRLLRSNREVQYIVLQNIATMSIQRKGMFEPYLKSFYVRSTDPTMIKTLKLEILTNLANEANISTLLREFQTYVKSQDKQFAAATIQTIGRCATNILEVTDTCLNGLVCLLSNRDEIVVAESVVVIKKLLQMQPAQHGEIIKHMAKLLDSITVPVARASILWLIGENCERVPKIAPDVLRKMAKSFTSEDDLVKLQILNLGAKLYLTNSKQTKLLTQYILNLGKYDQNYDIRDRTRFIRQLIVPNVKSGALSKYAKKIFLAQKPAPLLESPFKDRDHFQLGTLSHTLNIKATGYLELSNWPEVAPDPSVRNVEVIELAKEWTPAGKAKQENSAKKFYSESEEEEDSSDSSSDSESESGSESGEQGESGEEGDSNEDSSEDSSSEQDSESGRESGLENKRTAKRNSKAKGKSDSEDGEKENEKSKTSDSSNDESSSIEDSSSDSESESEPESESESRRVTKEKEKKTKQDRTPLTKDVSLLDLDDFNPVSTPVALPTPALSPSLMADLEGLHLSTSSSVISVSTPAFVPTKTHVLLHRMSGKGLAAHYFFPRQPCIFGDKMVSIQITLNNTTDRKIENIHIGEKKLPIGMKMHVFNPIDSLEPEGSITVSMGIDFCDSTQTASFQLCTKDDCFNVNIQPPVGELLLPVAMSEKDFKKEQGVLTGMNETSAVIIAAPQNFTPSVIFQKVVNVANVGAVPSGQDNIHRFAAKTVHSGSLMLVTVELKEGSTAQLIINTEKTVIGSVLLRELKPVLSQG
B2: μ3A-adaptin (HeLa) (protein, UniProt Q9Y2T2 1-418)
chain: MIHSLFLINCSGDIFLEKHWKSVVSQSVCDYFFEAQEKAADVENVPPVISTPHHYLISIYRDKLFFVSVIQTEVPPLFVIEFLHRVADTFQDYFGECSEAAIKDNVVIVYELLEEMLDNGFPLATESNILKELIKPPTILRSVVNSITGSSNVGDTLPTGQLSNIPWRRAGVKYTNNEAYFDVVEEIDAIIDKSGSTVFAEIQGVIDACIKLSGMPDLSLSFMNPRLLDDVSFHPCIRFKRWESERVLSFIPPDGNFRLISYRVSSQNLVAIPVYVKHSISFKENSSCGRFDITIGPKQNMGKTIEGITVTVHMPKVVLNMNLTPTQGSYTFDPVTKVLTWDVGKITPQKLPSLKGLVNLQSGAPKPEENPSLNIQFKIQQLAISGLKVNRLDMYGEKYKPFKGVKYVTKAGKFQVRT
B3: ^35S-labeled β3A (protein, UniProt O00203 1-1094)
chain: B1 chain
modifications: 35S-methionine label
B4: β3A-adaptin (rescued mocha fibroblasts) (protein, UniProt Q9Z1T1 1-1105)
chain: MSSNSFAYNEQSGGGEAAELGQEATSTISPSGAFGLFSSDWKKNEDLKQMLESNKDSAKLDAMKRIVGMIAKGKNASELFPAVVKNVASKNIEIKKLVYVYLVRYAEEQQDLALLSISTFQRALKDPNQLIRASALRVLSSIRVPIIVPVMMLAIKEASADLSPYVRKNAAHAIQKLYSLDPEQKEMLIEVIEKLLKDKSTLVAGSVVMAFEEVCPDRIDLIHRNYRKLCNLLVDVEEWGQVVIIHMLTRYARTQFVSPWREDGGLEDNEKNFYESEEEEEEKEKSSRKKSYAMDPDHRLLIRNTKPLLQSRNAAVVMAVAQLYWHISPKSEAGVISKSLVRLLRSNREVQYIVLQNIATMSIERKGMFEPYLKSFYVRSTDPTMIKTLKLEILTNLANEANISTLLREFQTYVRSQDKQFAAATIQTIGRCATSISEVTDTCLNGLVCLLSNRDEIVVAESVVVIKKLLQMQPAQHGEIIRHMAKLLDSITVPVARASILWLIGENCERVPKIAPDVLRKMAKSFTSEDDLVKLQILNLAAKLYLTNSKQTKLLTQYILNLGKYDQNYDIRDRTRFIRQLIVPNEKSGALSKYAKKIFLAPKPAPLLESPFKDRDRFQLGTLSHTLNIKASGYLELSNWPEVAPDPSVRNVEVIESAKEWTPLGKTKKEKPMKKFYSESEEEEDEDEDEDEEEEEKEDEDENPSDSSSDSESGSGSESGDTGTEDSSEDSSSGQDSETGSQAEAERQKVAKRNSKTKRKSDSENREKKNENSKASESSSEESSSMEDSSSESESESGSDSEPAPRNVAPAKERKPQQERHPPSKDVFLLDLDDFNPVSTPVALPTPALSPSLIADLEGLNLSTSSSVINVSTPVFVPTKTHELLHRMHGKGLAAHYCFPRQPCIFSDKMVSVQITLTNTSDRKIENIHIGGKGLPVGMQMHAFHPIDSLEPKGSVTVSVGIDFCDSTQTASFQLCTKDDCFNVTLQPPVGELLSPVAMSEKDFKKEQGTLTGMNETSATLIAAPQNFTPSMILQKVVNVANLGAVPSSQDNVHRFAARTVHSGSLMLVTVELKEGSTAQLIINTEKTVIGSVLLRELKPVLSQG
B5: ^35S-labeled δ-adaptin (protein, UniProt O14617 1-1153)
chain: T1 sequence
modifications: 35S-methionine label

Legend:
[1] = molecular target: T1, δ-adaptin (HeLa) (human (endogenous in HeLa)); experiment: co-IP; lysates of HeLa cells expressing VSVG-rabip4’ (50 mM HEPES pH 7.4, 150 mM NaCl, 1.5 mM MgCl2, 1 mM EDTA, 1% Triton X100); immunoprecipitation with anti-δ-adaptin or anti-γ1-adaptin; Western blot for VSVG and AP-3 subunits
[2] = molecular target: GST-rabip4’(aa 299–708) (UniProt Q96T51); experiment: pull-down; GST-rabip4’ immobilised on GSH beads, incubated with 35S-labeled in vitro translated AP-3 subunits or Myc-tagged β3A truncations; SDS-PAGE, phosphorimaging; only the target purified
[3] = molecular target: GST-rabip4’(aa 299–708) (UniProt Q96T51); experiment: pull-down; GST fusion proteins on beads incubated with detergent extracts of rescued mocha fibroblasts; Western blot for adaptor subunits (δ-adaptin for the mapping); only the target purified

Row | Binder | binding [1] | binding [2] | also measured
1 | B1 | binds | – | –
2 | B2 | binds | – | –
3 | B3 | – | binds | –
4 | B4 | – | – | binding [3]: binds
5 | B5 | – | no binding | –
